Data source: PubChem BioAssay AID504774 (Drosophila RNAi Screening Center, 2011)

Screen: 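Genes required for cells to withstand methyl methanesulphonate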 (primary screen)
Cells: Drosophila Kc167 cells
Knock-down reagent: long dsRNA against Drosophila genes, about 0.25 µg dsRNA per well
Duration: about 6 days: 3 days knock-down, then 3 days with or without MMS
Conditions: methyl methanesulphonate 0.004% (w/v) for 3 days after knock-down
Detection: 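Viability in wells given MMS, read as ATP luminescence, normalised by quantiles plate by plate and averaged across replicates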
Direction: mean viability with MMS and viability with MMS: higher = more surviving cells after MMS
The screen tested about 23,000 reagents; shown is an unselected part of those with a known target gene and a result. 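Values are quantile-normalised luminescence on an arbitrary scale; higher means more cells surviving MMS.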 The numbers tell different reagents against one gene apart. No sequences are given here.

| Target gene | dsRNA no. | mean viability with MMS | viability with MMS, replicate 1 | viability with MMS, replicate 2 |
| --- | --- | --- | --- | --- |
| CG13044 | 1 | 3.39e6 | 3.77e6 | 3.87e6 |
| CG7800 | 1 | 3.68e6 | 4.10e6 | 4.21e6 |
| CG13064 | 1 | 3.59e6 | 3.96e6 | 4.17e6 |
| CG15014 | 1 | 3.39e6 | 3.98e6 | 3.69e6 |
| Fur1 | 1 | 3.36e6 | 3.76e6 | 3.84e6 |
| Fur1 | 2 | 3.46e6 | 3.89e6 | 3.98e6 |
| sit | 1 | 3.42e6 | 3.87e6 | 3.84e6 |
| Ret | 1 | 3.55e6 | 4.07e6 | 3.82e6 |
| Ret | 2 | 3.48e6 | 3.98e6 | 3.90e6 |
| HP4 | 1 | 3.47e6 | 3.93e6 | 3.93e6 |
| Patj | 1 | 3.42e6 | 3.85e6 | 3.92e6 |
| CG45067 | 1 | 3.54e6 | 3.95e6 | 4.08e6 |
| CG31704 | 1 | 3.39e6 | 3.87e6 | 3.91e6 |
| CG17637 | 1 | 3.56e6 | 4.05e6 | 4.03e6 |
| resilin | 1 | 3.62e6 | 4.15e6 | 4.03e6 |
| resilin | 2 | 3.55e6 | 4.08e6 | 3.97e6 |
| CG6652 | 1 | 3.70e6 | 4.16e6 | 4.16e6 |
| Sprn | 1 | 3.59e6 | 4.08e6 | 4.03e6 |
| IntS8 | 1 | 3.28e6 | 3.77e6 | 3.75e6 |
| pros | 1 | 3.64e6 | 4.06e6 | 4.13e6 |
| pros | 2 | 3.55e6 | 4.01e6 | 4.05e6 |
| pros | 3 | 3.39e6 | 3.85e6 | 3.95e6 |
| Dbp73D | 1 | 3.56e6 | 4.12e6 | 3.95e6 |
| BicC | 1 | 3.47e6 | 4.00e6 | 3.87e6 |
| sut3 | 1 | 3.71e6 | 4.07e6 | 4.21e6 |
| CR33315 | 1 | 3.57e6 | 4.03e6 | 4.04e6 |
| CG31862 | 1 | 3.35e6 | 3.72e6 | 3.83e6 |
| Zcchc7 | 1 | 3.59e6 | 4.12e6 | 4.03e6 |
| fd59A | 1 | 3.51e6 | 3.98e6 | 4.13e6 |
| CG14881 | 1 | 3.30e6 | 3.75e6 | 3.72e6 |
| CG9328 | 1 | 3.10e6 | 3.46e6 | 2.70e6 |
| CG15745 (retired record) | 1 | 3.56e6 | 3.98e6 | 4.08e6 |
| Snap25 | 1 | 3.58e6 | 3.97e6 | 4.14e6 |
| Snap25 | 2 | 3.56e6 | 3.96e6 | 4.11e6 |
| 5-HT2A | 1 | 3.36e6 | 3.83e6 | 3.76e6 |
| Syx13 | 1 | 3.57e6 | 3.99e6 | 4.10e6 |
| CG6262 | 1 | 2.87e6 | 3.53e6 | 3.52e6 |
| CG6262 | 2 | 3.54e6 | 4.14e6 | 3.93e6 |
| dpr11 | 1 | 3.40e6 | 3.88e6 | 3.86e6 |
| dpr11 | 2 | 3.71e6 | 4.16e6 | 4.19e6 |
| dpr11 | 3 | 3.74e6 | 4.07e6 | 4.37e6 |
| CG2246 | 1 | 3.52e6 | 3.87e6 | 4.11e6 |
| CG8010 | 1 | 3.70e6 | 4.21e6 | 4.23e6 |
| Cyp6a17 | 1 | 3.42e6 | 3.83e6 | 3.89e6 |
| Oseg1 | 1 | 3.72e6 | 4.17e6 | 4.28e6 |
| CG10344 | 1 | 3.51e6 | 4.03e6 | 3.91e6 |
| Uxt | 1 | 3.42e6 | 3.90e6 | 3.86e6 |
| Fpps | 1 | 3.50e6 | 4.04e6 | 3.87e6 |
| btsz | 1 | 3.17e6 | 3.61e6 | 3.59e6 |
| btsz | 2 | 3.53e6 | 4.03e6 | 3.99e6 |
| vn | 1 | 3.26e6 | 3.64e6 | 3.66e6 |
| vn | 2 | 3.75e6 | 4.27e6 | 4.23e6 |
| Cyp6a8 | 1 | 3.25e6 | 3.70e6 | 3.73e6 |
| CG13590 | 1 | 3.65e6 | 3.93e6 | 3.98e6 |
| MESK2 | 1 | 3.52e6 | 4.02e6 | 3.95e6 |
| CG10029 | 1 | 3.42e6 | 3.79e6 | 3.98e6 |
| Dcps | 1 | 3.66e6 | 4.15e6 | 4.19e6 |
| Cpr11A | 1 | 3.53e6 | 3.98e6 | 4.02e6 |
| esn | 1 | 3.48e6 | 3.92e6 | 3.94e6 |
| esn | 2 | 3.55e6 | 4.03e6 | 4.01e6 |
| CG13954 | 1 | 3.54e6 | 4.03e6 | 4.00e6 |
| SMC6 | 1 | 3.58e6 | 4.05e6 | 4.06e6 |
| CG4404 | 1 | 3.32e6 | 3.83e6 | 3.75e6 |
| CG15539 | 1 | 3.47e6 | 3.99e6 | 3.85e6 |
| Pbgs | 1 | 3.48e6 | 3.93e6 | 3.94e6 |
| CG8543 | 1 | 3.73e6 | 4.13e6 | 4.29e6 |
| CG8543 | 2 | 3.51e6 | 4.04e6 | 3.95e6 |
| Akh | 1 | 3.54e6 | 3.98e6 | 4.04e6 |
| E(spl)mdelta-HLH | 1 | 3.46e6 | 3.91e6 | 3.90e6 |
| Apc2 | 1 | 3.72e6 | 4.16e6 | 4.21e6 |
| hog | 1 | 3.28e6 | 3.76e6 | 3.76e6 |
| ranshi | 1 | 3.54e6 | 4.01e6 | 4.02e6 |
| CG12065 | 1 | 3.64e6 | 3.96e6 | 4.46e6 |
| CG12065 | 2 | 3.52e6 | 4.01e6 | 3.99e6 |
| CG7884 | 1 | 3.76e6 | 4.28e6 | 4.11e6 |
| Ac3 | 1 | 3.68e6 | 4.22e6 | 4.36e6 |
| NaCP60E | 1 | 3.50e6 | 4.03e6 | 3.95e6 |
| NaCP60E | 2 | 3.86e6 | 4.27e6 | 4.39e6 |
| CG1494 | 1 | 3.49e6 | 4.00e6 | 3.93e6 |
| COX3 (retired record) | 1 | 3.51e6 | 4.06e6 | 3.93e6 |
| CG18508 | 1 | 3.53e6 | 3.96e6 | 4.06e6 |
| CG33107 | 1 | 3.53e6 | 3.93e6 | 4.06e6 |
| mah | 1 | 3.58e6 | 4.13e6 | 3.98e6 |
| Osi12 | 1 | 3.52e6 | 3.95e6 | 4.05e6 |
| Br140 | 1 | 3.14e6 | 3.50e6 | 2.87e6 |
| CG32762 | 1 | 3.74e6 | 4.26e6 | 4.24e6 |
| CG12376 | 1 | 3.70e6 | 4.17e6 | 4.21e6 |
